Data from PubChem BioAssay (Tox21).
Values joined by “and” are separate entries in the source; they are usually repeats but may differ in a detail not shown here. Equal entries are not always repeated. The inconclusive results got no clear call from the source; some entries with a clear call stand among them for comparison. A call without a number means that no potency is given here. Where the call is inconclusive, the potency comes from a doubtful curve fit. Active and inactive are the calls of the source. Unless noted, the call rests on the fitted dose curve; in most records, active means well fitted cell-killing curve with a large enough effect in the repeat runs; inconclusive means weak or mixed curves, or effect the other way; inactive means no such curve, though single readings can be large or run the other way.

Chains of the proteins cited; added tags and fusions are not shown. Lines headed by an entry give the natural chain unless they say otherwise; changes in a name come on top.
UniProt P11473: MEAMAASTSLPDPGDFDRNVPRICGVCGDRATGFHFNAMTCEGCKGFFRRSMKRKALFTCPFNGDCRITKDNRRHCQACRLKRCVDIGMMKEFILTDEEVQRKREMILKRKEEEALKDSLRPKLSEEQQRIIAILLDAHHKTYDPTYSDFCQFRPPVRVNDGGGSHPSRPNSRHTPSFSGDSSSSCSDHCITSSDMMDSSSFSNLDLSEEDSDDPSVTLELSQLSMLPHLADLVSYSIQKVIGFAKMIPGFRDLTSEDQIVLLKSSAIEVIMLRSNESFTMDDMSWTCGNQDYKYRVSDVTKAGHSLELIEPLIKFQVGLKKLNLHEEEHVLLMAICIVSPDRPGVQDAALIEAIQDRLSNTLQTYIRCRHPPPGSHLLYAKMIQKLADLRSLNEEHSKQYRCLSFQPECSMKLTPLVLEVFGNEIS

Molecular target: Vitamin D3 receptor (Homo sapiens) (UniProt P11473)
Experiment: qHTS assay to identify small molecule antagonists of the vitamin D receptor (VDR) signaling pathway (AID 743223; active means well fitted inhibition curve with a large enough effect in the signal ratio in the repeat runs, not every such curve was filed as active; inconclusive means weak or mixed curves, or effect the other way; inactive means no such curve, though single readings can be large or run the other way; the % refers to the signal ratio)
Conditions: VDR-UAS-bla HEK293T, beta-lactamase FRET ratio, 16 h; activity change, negative = inhibition: at 61 µM (top of the series) unless noted
Procedure, shortened: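 Beta-lactamase activity in VDR-bla cells is measured by FRET substrate fluorescence (2 h, room temperature) after cells spend 16 h at 37C with test compound and 3 nM final 1alpha,25-dihydroxyvitamin D3.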
Potency means the concentration at half of the fitted maximal effect.

Row | Compound | Potency | activity change, negative = inhibition
1 | OCCOc1cccc(OCCO)c1 | inconclusive: 49 µM [activator, single point] | –
2 | CN(C)CCC(c1ccccc1)c1ccccn1 (stereo unspecified) | inactive | –
3 | CCCCCC(=O)O | inactive | –
4 | Cc1cc(=O)oc2cc(O[C@@H]3SC[C@@H](O)[C@H](O)[C@H]3O)ccc12 | – | inconclusive: 17.7%
5 | O=C(OCCOCCOCCOC(=O)c1ccccc1)c1ccccc1 | inactive | –
6 | CCCCCCCCS(=O)(=O)O | inactive | –
7 | CCCC(C)C | inactive | –
8 | FC(F)(F)c1ccc(Cl)c(Cl)c1 | – | inconclusive: 13.8% and inconclusive: 7.38%
9 | COC(=O)c1ccc(C)cc1C1=NC(C)(C(C)C)C(=O)N1 (stereo unspecified) | – | inconclusive: -9.78%
10 | COC(C)(C)CC(C)=O | – | inconclusive: -2.72%
11 | O=C(O)c1c(O)c(-c2ccccc2)nc2ccccc12 | inactive | –
12 | O=C(O)c1cn(C2CC2)c2cc(Cl)c(F)cc2c1=O | inactive | –
13 | CC(C)C(=O)OCCc1ccccc1 | inactive | –
14 | O=c1c2ccccc2oc2ccccc12 | – | inconclusive: 24.2%
15 | C=CCNC(N)=S | – | inconclusive: -2.91%
16 | CCCC(=O)OCCC(C)C | – | inconclusive: -32.5%

One compound at a time, from the list above:
O=c1c2ccccc2oc2ccccc12 is listed as activity change, negative = inhibition: inconclusive: 24.2%
O=C(OCCOCCOCCOC(=O)c1ccccc1)c1ccccc1 is listed as Potency: inactive

Tested on: not listed separately
Experiment: qHTS assay to identify small molecule antagonists of the vitamin D receptor (VDR) signaling pathway - cell viability counter screen (AID 743225); further: nearly all actives have a fitted effect of over 50% in size
Conditions: VDR-bla HEK293T viability, CellTiter-Glo luminescence, 16 h; viability change, negative = cytotoxic: at 61 µM (top of the series) unless noted
Procedure, shortened: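 In this counter screen, VDR-bla HEK 293T cells receive test compound plus 3 nM final calcitriol for 16 h at 37C. Room-temperature steps of 2 h with the beta-lactamase substrate, then 30 min with CellTiter-Glo, precede the luminescence read.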

Row | Compound | Potency | viability change, negative = cytotoxic
17 | CN(C)CCC(c1ccccc1)c1ccccn1 (stereo unspecified) | inactive | –
18 | CCCCCC(=O)O | inconclusive: 6.92 µM [cytotoxic, single point] | –
19 | C=C(C)C(=O)OCCC(C)OC(=O)C(=C)C (stereo unspecified) | inactive | –
20 | NC(=S)NNC(N)=S | – | inconclusive: 5.55% [cytotoxic]
21 | O=C1C=CCCC1 | inactive | –
